Taken from: PubChem BioAssay AID602196 (INSERM, 2012)

Screen: 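Knock-downs that protect lung cancer cells from cisplatin or sensitise them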
Cell system: human A549 lung cancer cells
Knock-down reagent: siRNA pair against human genes
Time to read-out: 48 h transfection before cisplatin; time from cisplatin to read-out not stated
Conditions: cisplatin at a dose killing half of control-siRNA cells; exact dose and duration not given
Measurement: 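Cisplatin cell death as a shift from the 50% death seen with control siRNA; siRNAs toxic or growth-blocking alone scored 0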
Direction: two-siRNA summed score (-2 to +2): higher = both siRNAs protect from cisplatin killing; -2 means both sensitise
Rule for the call: 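Each siRNA scores 0 if harmful alone by LDH or WST-1, otherwise +1 if it reduces and -1 if it increases cisplatin killing; a gene is active when both siRNAs agree (sum +2 or -2)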
Meaning of the calls: active = both siRNAs shift cisplatin killing the same way; inactive = no consistent shift, or siRNA harmful alone
Here is a random part of about 23,000 deposited reagents. 455 of all reagents (2%) count as active. 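Active includes both protection and sensitisation; some change values fall well beyond the stated -50 to +50 range.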 Not all columns of the deposit are shown. No sequences are given here. Not stated in the record: the amount of reagent.

two-siRNA summed score (-2 to +2) | outcome | target
0 | inactive | SLAMF9 (SLAM family member 9)
0 | inactive | R3HDM2 (R3H domain containing 2)
1 | inactive | MBD3L2 (methyl-CpG binding domain protein 3 like 2)
1 | inactive | KIAA0527
0 | inactive | LOC440031 (retired record)
-1 | inactive | IFNGR1 (interferon gamma receptor 1)
0 | inactive | VPS26B (VPS26 retromer complex component B)
-1 | inactive | TBC1D10A (TBC1 domain family member 10A)
1 | inactive | DDX5 (DEAD-box helicase 5)
-1 | inactive | GRIK5 (glutamate ionotropic receptor kainate type subunit 5)
0 | inactive | GPR20 (G protein-coupled receptor 20)
0 | inactive | KIAA0830
0 | inactive | LOC391707 (chromatin accessibility complex subunit 1 pseudogene)
0 | inactive | MCTP1 (multiple C2 and transmembrane domain containing 1)
1 | inactive | STX8 (syntaxin 8)
0 | inactive | R3HDML (R3H domain containing like)
1 | inactive | PSMD7 (proteasome 26S subunit, non-ATPase 7)
-1 | inactive | THSD4 (thrombospondin type 1 domain containing 4)
0 | inactive | SPATS2 (spermatogenesis associated serine rich 2)
0 | inactive | DNAAF8 (dynein axonemal assembly factor 8)
0 | inactive | SLC6A17
0 | inactive | PRXL2A (peroxiredoxin like 2A)
1 | inactive | ZFP36 (ZFP36 zinc finger CCCH-type)
0 | inactive | STIM2 (stromal interaction molecule 2)
2 | active | AMPD1 (adenosine monophosphate deaminase 1)
0 | inactive | INHA (inhibin subunit alpha)
0 | inactive | OPN4 (opsin 4)
0 | inactive | SLAMF1 (signaling lymphocytic activation molecule family member 1)
0 | inactive | PFDN6 (prefoldin subunit 6)
0 | inactive | AP3M2 (adaptor related protein complex 3 subunit mu 2)
0 | inactive | PRRG2 (proline rich and Gla domain 2)
0 | inactive | TIA1 (TIA1 cytotoxic granule associated RNA binding protein)
0 | inactive | DHRS12 (dehydrogenase/reductase 12)
-1 | inactive | NEK4 (NIMA related kinase 4)
-1 | inactive | RSPO3 (R-spondin 3)
0 | inactive | GREB1L (GREB1 like retinoic acid receptor coactivator)
0 | inactive | LOC150084
0 | inactive | LOC440463
1 | inactive | CDK20 (cyclin dependent kinase 20)

Reprinted from the entries so far for reference:
two-siRNA summed score (-2 to +2) | outcome | target
2 | active | AMPD1 (adenosine monophosphate deaminase 1)
0 | inactive | INHA (inhibin subunit alpha)
0 | inactive | OPN4 (opsin 4)
0 | inactive | SLAMF1 (signaling lymphocytic activation molecule family member 1)
0 | inactive | PFDN6 (prefoldin subunit 6)
